# Data reported in PubChem BioAssay AID540276 (National Center for Advancing Translational Sciences (NCATS), 2011).
# Screen size: about 300,000 compounds; about 5,400 (1.8%) were called active. The shares of active, inactive and inconclusive entries below differ from those in the screen. Calls follow the shape of the full dose curve; tested in HEK293 cells. Where the call is inconclusive, the potency comes from a doubtful curve fit.
# Experiment: qHTS for inhibitors of binding or entry into cells for Marburg Virus
# Conditions: Marburg virus pseudotyped entry inhibition, cell reporter; activity change, negative = inhibition: at 37.8 µM (top of the series) unless noted
# % is scaled to controls: 0 for no effect and ±100 for the full control effect; potency is read from the fitted curve at half-maximal effect.
SMILES,"activity change, negative = inhibition",Potency
COC(=O)CN1C(=O)C(O)(CC(=O)c2ccc(C)cc2)c2cc(Br)ccc21 (configuration not stated),inactive: 2.59%,–
CCN(c1ccc(NC(=O)CCc2nc3sc4c(c3c(=O)[nH]2)CCCC4)cc1)C(C)C,inactive: -23.6%,–
N#CCCN1CCNCC1,–,"inconclusive: 22.4 µM [activator, single point]"
O=C(CCCc1ccccc1)Nc1ccccc1C(F)(F)F,inactive: 4.69% [at 46.1 µM],–
O=c1c([N+](=O)[O-])c(N2CCOCC2)c2ccccc2n1Cc1ccccc1,inactive: -1.7% [at 46.1 µM],–
COc1cc(/C=C2\C(=O)NC(=O)N(c3ccccc3)C2=O)cc(OC)c1OC,–,"inconclusive: 1.41 µM [inhibitor, single point]"
Oc1ccc(Nc2nc(-c3ccccc3)nc3ccccc23)cc1,–,"inconclusive: 15.8 µM [inhibitor, single point]"
O=C(Nc1ccc(CN2CCOCC2)cc1)c1ccc(-c2ccc(Cl)cc2Cl)o1,–,"inconclusive: 12.6 µM [inhibitor, partial curve, poor fit]"
CC(C)(C)c1csc(NC(=O)c2cccnc2Cl)n1,inactive: 9.88%,–
O=C(NCCC1CCCCN1S(=O)(=O)c1ccccc1)C(=O)Nc1ccc(F)cc1 (configuration not stated),–,"inconclusive: 35.5 µM [inhibitor, single point]"
Cc1ccnc(NS(=O)(=O)c2ccc(NC(=O)c3ccc(C)o3)cc2)n1,–,"inconclusive: 1.26 µM [activator, single point]"
CCCCN(CCCC)CC(O)CN(c1cc([N+](=O)[O-])ccc1OC)S(=O)(=O)c1ccccc1 (configuration not stated),–,"inconclusive: 35.5 µM [inhibitor, single point]"
O=C(CC1SC(=NCc2ccccc2)NC1=O)Nc1ccccc1 (configuration not stated),–,"inconclusive: 28.2 µM [activator, single point]"
CCOc1ccc(CCNC(=O)COC(=O)Cn2cnc3c2c(=O)n(C)c(=O)n3C)cc1OCC,–,"inconclusive: 1.26 µM [inhibitor, single point]"
C[C@]12CC[C@@H](O)CC1CCC1C2CC[C@]2(C)C(=O)CC[C@@H]12 (some centres not stated),–,"inconclusive: 0.282 µM [inhibitor, full curve, poor fit]"
CC(O/N=C/c1ccccc1OC(F)F)C(=O)Nc1cccc(S(=O)(=O)N2CCOCC2)c1 (configuration not stated),–,"inconclusive: 0.794 µM [inhibitor, full curve, poor fit]"
NC(=S)N/N=C/c1cccc(Br)c1,inactive: 5.87%,–
CN(C(=O)CCN1C(=O)/C(=C/c2ccccc2)SC1=S)C1CCS(=O)(=O)C1 (configuration not stated),–,"inconclusive: 2.51 µM [inhibitor, partial curve, poor fit]"
O=C(CNCCc1ccc(Cl)cc1)Nc1ccc(C(=O)N2CCCCC2)cc1,–,active: 11.2 µM
O=C(CCC(C(=O)O)N1C(=O)c2ccccc2C1=O)Nc1ccccc1 (configuration not stated),–,"inconclusive: 0.891 µM [inhibitor, single point]"
Cc1nn(C)cc1C(=O)NNC(=S)Nc1ccccc1,–,"inconclusive: 20 µM [activator, single point]"

# Three compounds already listed, sorted by heavy-atom count, ascending:
SMILES,"activity change, negative = inhibition",Potency
Cc1nn(C)cc1C(=O)NNC(=S)Nc1ccccc1,–,"inconclusive: 20 µM [activator, single point]"
Oc1ccc(Nc2nc(-c3ccccc3)nc3ccccc23)cc1,–,"inconclusive: 15.8 µM [inhibitor, single point]"
O=C(Nc1ccc(CN2CCOCC2)cc1)c1ccc(-c2ccc(Cl)cc2Cl)o1,–,"inconclusive: 12.6 µM [inhibitor, partial curve, poor fit]"

# (next part)

SMILES,"activity change, negative = inhibition",Potency
C=CCn1c(CSCc2ccccc2)nnc1SCC(=O)N1CCN(c2ccccc2)CC1,–,"inconclusive: 0.562 µM [inhibitor, full curve, poor fit]"
Cc1cc(C)cc(N(CC(=O)NCc2ccccc2Cl)S(=O)(=O)c2c(C)noc2C)c1,–,"inconclusive: 31.6 µM [inhibitor, single point]"
CCOC(=O)c1ccc(Nc2cc(-c3ccccc3)nc(C)n2)cc1,–,"inconclusive: 2 µM [inhibitor, partial curve, poor fit]"
COc1ccc(CCC(=O)NCCc2ccc(Cl)cc2)cc1,inactive: 3.3% [at 46.1 µM],–
COc1ccccc1-n1cc(-c2ccc(Cl)cc2)[nH]c1=O,–,"inconclusive: 0.562 µM [activator, full curve]"
COc1ccc(C)cc1S(=O)(=O)N(C)CC(=O)NCc1ccco1,–,"inconclusive: 1 µM [activator, single point]"
CCOc1cc2c(cc1OCC)-n1cccc1C(c1cccc(F)c1F)NC2 (configuration not stated),–,"inconclusive: 35.5 µM [inhibitor, single point]"
Cc1cccc(-c2nc(SCC(=O)Nc3ccc4c(c3)OCCO4)c(-c3ccccc3)[nH]2)c1,–,"inconclusive: 35.5 µM [inhibitor, single point]"
Cc1ccc(Cl)cc1N1CCN(C(=O)C2CCN(Cc3nc(-c4cccc(Cl)c4)oc3C)CC2)CC1,–,"inconclusive: 0.562 µM [activator, full curve, poor fit]"
O=S(=O)(Nc1ccc(-n2cnnn2)cc1)c1ccccc1F,–,"inconclusive: 12.6 µM [activator, single point]"
Cc1ccc(NCCc2ccc(C)nc2)cc1,inactive: 6.9%,–
Cc1ccc(CN=C(Nc2ccccc2)NC2CCCCC2)cc1,–,"inconclusive: 15.8 µM [inhibitor, single point]"
CCCCn1c(SCC(=O)Nc2cc(C(F)(F)F)ccc2Cl)nnc1C(CC)N(C)C (configuration not stated),–,"inconclusive: 16.4 µM [inhibitor, partial curve, poor fit]"
CC1=C([N+](=O)[O-])C(c2ccccc2)C2=C(N1)c1ccccc1C2=O (configuration not stated),–,"inconclusive: 1 µM [inhibitor, full curve]"
CCOc1cc(Br)c(C(=O)O)cc1OC,–,"inconclusive: 0.461 µM [activator, partial curve]"
COC(=O)CC1Oc2ccccc2-n2cc(-c3ccc(Cl)cc3)nc21 (configuration not stated),inactive: 18% [at 46.1 µM],–
COc1cc2c(cc1OC)CN(C(=O)c1sccc1C)CC2,–,"inconclusive: 3.16 µM [inhibitor, single point]"
O=C(CSCc1ccc(Cl)cc1Cl)Nc1ccccc1C(=O)Nc1ccc(C(=O)O)cc1,–,"inconclusive: 15.8 µM [inhibitor, single point]"
O=S(=O)(Nc1cc(S(=O)(=O)N2CCOCC2)ccc1NCC1CCCO1)c1ccc(F)cc1 (configuration not stated),–,"inconclusive: 0.708 µM [activator, partial curve, poor fit]"
Cc1occc1C(=O)N/N=C/C=C/c1ccccc1,–,"inconclusive: 5.8 µM [activator, single point]"
COc1ccc(CC(=O)N2CCN=C2SCc2ccc([N+](=O)[O-])cc2)cc1,–,"inconclusive: 25.1 µM [inhibitor, partial curve, poor fit]"
